Data published in US20210115121A1.
Substitutions are numbered along the chain they refer to. Results are given in words; binding and its absence hold for the method and conditions named. Some results given as binding are weak or reduced against the parent protein; the word gives no strength. Blank lines part the entries; values can stand above or below the binder they belong to.

Sequences of proteins named here, by UniProt entry; tags and fusion partners are left off. A change or cut given only in a name is not applied to a line headed by its entry. A line that says so, or that is headed by a name, gives the form on record, which may keep a tag or linker.
Tau from human Alzheimer's disease brain (isolated Tau PHF fibrils from Alzheimer's disease patients) (P10636, form named): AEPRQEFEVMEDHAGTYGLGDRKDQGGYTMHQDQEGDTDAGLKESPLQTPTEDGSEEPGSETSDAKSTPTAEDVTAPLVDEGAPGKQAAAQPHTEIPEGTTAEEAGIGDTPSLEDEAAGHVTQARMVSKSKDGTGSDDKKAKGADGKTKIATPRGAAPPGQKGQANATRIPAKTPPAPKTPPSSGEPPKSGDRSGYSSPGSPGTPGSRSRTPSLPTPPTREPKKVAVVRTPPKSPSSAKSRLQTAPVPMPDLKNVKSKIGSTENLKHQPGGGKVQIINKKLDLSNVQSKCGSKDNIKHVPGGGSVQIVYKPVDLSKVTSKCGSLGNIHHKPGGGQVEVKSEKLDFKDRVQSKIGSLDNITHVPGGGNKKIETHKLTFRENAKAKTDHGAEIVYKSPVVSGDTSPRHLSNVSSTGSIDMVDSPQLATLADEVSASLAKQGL
human Tau P301L from brain of P301L Tau transgenic mice (P10636, form named): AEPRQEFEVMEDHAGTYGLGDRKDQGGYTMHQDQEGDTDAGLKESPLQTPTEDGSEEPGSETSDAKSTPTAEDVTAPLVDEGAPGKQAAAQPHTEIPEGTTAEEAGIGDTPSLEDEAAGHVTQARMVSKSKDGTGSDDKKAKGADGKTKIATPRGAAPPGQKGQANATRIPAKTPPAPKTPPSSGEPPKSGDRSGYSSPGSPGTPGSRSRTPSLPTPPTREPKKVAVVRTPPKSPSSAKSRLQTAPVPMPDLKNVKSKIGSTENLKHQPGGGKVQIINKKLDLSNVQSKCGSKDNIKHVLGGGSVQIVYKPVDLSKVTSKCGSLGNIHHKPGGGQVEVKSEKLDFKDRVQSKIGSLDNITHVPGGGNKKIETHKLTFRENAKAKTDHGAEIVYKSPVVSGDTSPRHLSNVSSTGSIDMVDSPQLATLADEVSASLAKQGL

Key:
[1] = target: Tau from human Alzheimer's disease brain (isolated Tau PHF fibrils from Alzheimer's disease patients) (human) (UniProt P10636); experiment: Western blot (SDS-PAGE, PVDF membrane) on Tau from fraction 8 samples of human brain [continued) B]
[2] = target: Tau from control human brain (samples of Tau negative pathology) (human) (UniProt P10636); experiment: as above
[3] = target: Tau from human progressive supranuclear palsy brain (human) (UniProt P10636); experiment: as above
[4] = target: Tau from human Alzheimer's disease brain (isolated Tau PHF fibrils from Alzheimer's disease patients) (human) (UniProt P10636); experiment: western blot
[5] = target: human Tau P301L from brain of P301L Tau transgenic mice (human) (UniProt P10636); experiment: western blot
[6] = target: Tau from control human brain (samples of Tau negative pathology) (human) (UniProt P10636); experiment: western blot
[7] = target: Tau from human progressive supranuclear palsy brain (human) (UniProt P10636); experiment: western blot
[8] = target: Tau from human Alzheimer's disease brain (isolated Tau PHF fibrils from Alzheimer's disease patients) (human) (UniProt P10636); experiment: Western blot (SDS-PAGE, PVDF membrane) on Tau from fraction 8 samples of human brain [continued) C]
[9] = target: Tau from control human brain (samples of Tau negative pathology) (human) (UniProt P10636); experiment: as above
[10] = target: Tau from human progressive supranuclear palsy brain (human) (UniProt P10636); experiment: as above
[11] = target: Tau from human Alzheimer's disease brain (isolated Tau PHF fibrils from Alzheimer's disease patients) (human) (UniProt P10636); experiment: immunostaining of cryosections of human AD hippocampus
[12] = target: Tau from human Alzheimer's disease brain (isolated Tau PHF fibrils from Alzheimer's disease patients) (human) (UniProt P10636); experiment: immunostaining of human brain samples
[13] = target: Tau from control human brain (samples of Tau negative pathology) (human) (UniProt P10636); experiment: immunostaining of human brain samples
[14] = target: Tau from human Alzheimer's disease brain (isolated Tau PHF fibrils from Alzheimer's disease patients) (human) (UniProt P10636); experiment: immunostaining of human brain cryosections (Experiment 3.2)
[15] = target: Tau from control human brain (samples of Tau negative pathology) (human) (UniProt P10636); experiment: as above
[16] = target: Tau from human Alzheimer's disease brain (isolated Tau PHF fibrils from Alzheimer's disease patients) (human) (UniProt P10636); experiment: western blot (Experiment 3.3)
[17] = target: Tau from control human brain (samples of Tau negative pathology) (human) (UniProt P10636); experiment: western blot (Experiment 3.3)
[18] = target: Tau from human progressive supranuclear palsy brain (human) (UniProt P10636); experiment: western blot (Experiment 3.3)
[19] = target: Tau from human Alzheimer's disease brain (isolated Tau PHF fibrils from Alzheimer's disease patients) (human) (UniProt P10636); experiment: Western blot (SDS-PAGE, PVDF membrane) on Tau from fraction 8 samples of human brain
[20] = target: Tau from human progressive supranuclear palsy brain (human) (UniProt P10636); experiment: as above
[21] = target: Tau from human Alzheimer's disease brain (isolated Tau PHF fibrils from Alzheimer's disease patients) (human) (UniProt P10636); experiment: SPR, Biacore (Experiment 2.3)
[22] = target: Tau from human Alzheimer's disease brain (isolated Tau PHF fibrils from Alzheimer's disease patients) (human) (UniProt P10636); experiment: SPR, Biacore T200

- binding [1]: binds
- binding [2]: binds
- binding [3]: binds
- binding [4]: binds
- binding [5]: binds
- binding [6]: binds
- binding [7]: binds
B1: Tau-binding antibody having the light chain of SEQ ID No.: 14 and the heavy chain of SEQ ID No.:17 (antibody, human IgG4 S228P, kappa, V domains shown)
VH: EVQLQESGPGLVKPSETLSLTCTVSGFSLTSNDIAWIRQPPGKGLEWMGTIWTDGSTNYNAAVQSRVTISVDTSKNQFSLKLSSVTAADTAVYYCARHRLYYGAFDYWGQGTMVTVSS
VL: DIVMTQTPLSLSVTPGQPASISCRSSQSLEYSDGYTYLEWYLQKPGQSPQLLIYEVSNRFSGVPDRFSGSGSGTDFTLKISRVEAEDVGVYYCFQATHNPYTFGQGTKLEIKR

- binding [8]: binds
- binding [9]: binds
- binding [10]: binds
- binding [4]: binds
- binding [5]: binds
- binding [6]: binds
- binding [7]: binds
B2: Tau-binding antibody having the light chain of SEQ ID No.: 14 and the heavy chain of SEQ ID No.:18 (antibody, human IgG4 S228P, kappa, V domains shown)
VH: B1 VH with A61T
VL: B1 VL

- binding [11]: binds
- binding [12]: binds
- binding [13]: binds
- binding [14]: binds
- binding [15]: binds
- binding [16]: binds
- binding [17]: binds
- binding [18]: binds
- binding [19]: binds
- binding [20]: binds
- binding [4]: binds
- binding [5]: binds
- binding [6]: binds
- binding [7]: binds
B3: AB1 having a rat VL of SEQ ID NO: 7 and a rat VH of SEQ ID NO.:8 (antibody, IgG1, V domains shown)
VH: EVKLEESGPGLMQPSETLSLTCTVSGFSLTSNDIAWVRQPLGKGLVWMGTIWTDGSTNYNSAVQSRLSISRDTSKSQFFLKMNSLQPEDTGTYYCARHRLYYGAFDYWGQGTMVTVS
VL: DIVMTQTPVSLSVTLGDQASISCRSSQSLEYSDGYTYLEWYLQKPGQSPQLLIYEVSNRFSGVPDRFIGSGSGTDFTLKISRVEPEDLGVYYCFQATHNPYTFGAGTKLEIK

- binding [21]: binds
- binding [22]: binds
B4: mFab AB1 having a rat VL of SEQ ID No.: 7 and a rat VH of SEQ ID No.: 8 (Fab, V domains shown)
VH: B3 VH
VL: B3 VL
